Measurements: publication PMC11963761, “Structural basis for control of integrative and conjugative element excision and transfer by the oligomeric winged helix–turn–helix protein RdfS”

Legend:
[1] = molecular target: T1, 6H-RdfS (Mesorhizobium japonicum R7A (ICEMlSymR7A)) (UniProt Q7AL96); assay: SPR; details: 1 uM, nonspecific increase by tag; SPR: ReDCaT on Biacore T200, 1 uM protein; temperature not given; recombinant protein; residues 1-89; protein details: N-terminal 6xHis; label: 5' biotin on …
T1 sequence (looked up): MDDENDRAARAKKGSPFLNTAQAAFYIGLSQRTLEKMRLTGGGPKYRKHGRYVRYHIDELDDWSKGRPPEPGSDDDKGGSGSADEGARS

[2] = molecular target: T2, RdfS (Mesorhizobium japonicum R7A (ICEMlSymR7A)) (UniProt Q7AL96); assay: SPR; details: 1 uM; SPR: ReDCaT on Biacore T200, 1 uM protein; temperature not given; recombinant protein; residues 1-89; protein details: N-terminal 6xHis removed after purification; label: 5' biotin on S36
T2 sequence (looked up): T1 sequence (looked up)

Sequence	binding result [1]	binding result [2]	binding signal (% of attP 8 Rmax) [2]
CAAATTTGTTTCTCTTGGATTCCGCCTCTGGGCACCATCC / GGATGGTGCCCAGAGGCGGAATCCAAGAGAAACAAATTTGCCTACCCTACGTCCTCCTGC / GCAGGAGGACGTAGGGTAGG [attP_3]	binds more weakly	no binding	
CGCGCAAAGCGCGGATGGTCGGGTTTTGTGGAATTTCGGC / GCCGAAATTCCACAAAACCCGACCATCCGCGCTTTGCGCGCCTACCCTACGTCCTCCTGC / GCAGGAGGACGTAGGGTAGG [attP_7]	binds more weakly	no binding	
GAATTTCGGCGCAGTTGGTGCAACGAGGCGGGGGGCTGGT / ACCAGCCCCCCGCCTCGTTGCACCAACTGCGCCGAAATTCCCTACCCTACGTCCTCCTGC / GCAGGAGGACGTAGGGTAGG [attP_8_M20]		binds	
GAATTTCGGCGCTGTTGGTCCAACGAGGCGGGGGGCTGGT / ACCAGCCCCCCGCCTCGTTGGACCAACAGCGCCGAAATTCCCTACCCTACGTCCTCCTGC / GCAGGAGGACGTAGGGTAGG [attP_8_M13]		binds	
GAATTTCGGCGGAGTTGGTCCAACGAGGCGGGGGGCTGGT / ACCAGCCCCCCGCCTCGTTGGACCAACTCCGCCGAAATTCCCTACCCTACGTCCTCCTGC / GCAGGAGGACGTAGGGTAGG [attP_8_M12]		binds	
GAATTTCGGGGCAGTTGGTCCAACGAGGCGGGGGGCTGGT / ACCAGCCCCCCGCCTCGTTGGACCAACTGCCCCGAAATTCCCTACCCTACGTCCTCCTGC / GCAGGAGGACGTAGGGTAGG [attP_8_M10]		binds	
GAATTTGGGCGCAGTTGGTCCAACGAGGCGGGGGGCTGGT / ACCAGCCCCCCGCCTCGTTGGACCAACTGCGCCCAAATTCCCTACCCTACGTCCTCCTGC / GCAGGAGGACGTAGGGTAGG [attP_8_M07]		binds	
GACGACCTCGTTCGCCGATC / GATCGGCGAACGAGGTCGTCCCTACCCTACGTCCTCCTGC / GCAGGAGGACGTAGGGTAGG [PrdfS4_5 20-mer]		no binding	
GACTCTTCGCCCGTCCCCAC / GTGGGGACGGGCGAAGAGTCCCTACCCTACGTCCTCCTGC / GCAGGAGGACGTAGGGTAGG [PrdfS4_1 20-mer]		no binding	
GATTTTCGGCGCAGTTGGTCCAACGAGGCGGGGGGCTGGT / ACCAGCCCCCCGCCTCGTTGGACCAACTGCGCCGAAAATCCCTACCCTACGTCCTCCTGC / GCAGGAGGACGTAGGGTAGG [attP_8_M03]		binds	
GCAACTAGCTGAAATCCTTACTGATTTCGGCGCGCAAAGC / GCTTTGCGCGCCGAAATCAGTAAGGATTTCAGCTAGTTGCCCTACCCTACGTCCTCCTGC / GCAGGAGGACGTAGGGTAGG [attP_6]	binds more weakly	no binding	
GCAGTTGGTCCAACGAGGCG / CGCCTCGTTGGACCAACTGCCCTACCCTACGTCCTCCTGC / GCAGGAGGACGTAGGGTAGG [attP8_3 20-mer]			< 45
GGCACCATCCCCTCTTCTCCCGACAGTCTCTTTCGCCGAA / TTCGGCGAAAGAGACTGTCGGGAGAAGAGGGGATGGTGCCCCTACCCTACGTCCTCCTGC / GCAGGAGGACGTAGGGTAGG [attP_4]	binds more weakly	no binding	
GTATTTCGGCGCAGTTGGTCCAACGAGGCGGGGGGCTGGT / ACCAGCCCCCCGCCTCGTTGGACCAACTGCGCCGAAATACCCTACCCTACGTCCTCCTGC / GCAGGAGGACGTAGGGTAGG [attP_8_M02]		binds	
TCGGCGCAGTTGGTCCAACG / CGTTGGACCAACTGCGCCGACCTACCCTACGTCCTCCTGC / GCAGGAGGACGTAGGGTAGG [attP8_2 20-mer]			< 45
TGGTCCAACGAGGCGGGGGG / CCCCCCGCCTCGTTGGACCACCTACCCTACGTCCTCCTGC / GCAGGAGGACGTAGGGTAGG [attP8_4 20-mer]			< 45
TTCGCCCGTCCCCACGACGA / TCGTCGTGGGGACGGGCGAACCTACCCTACGTCCTCCTGC / GCAGGAGGACGTAGGGTAGG [PrdfS4_2 20-mer]		no binding	

For at least one entry, the source does not settle the construct or the ends of the probe. For part of these data: A negative result means that nothing was seen under these conditions. At least one verdict rests on a figure or table, not on a statement of the authors. Tags and fusion partners may be left off the protein sequences shown. For part of these data: Weaker means in comparison with the reference protein, sequence or condition of that experiment. For part of these data: Whether high values mean tight binding is not given here for every scale.
